{"source": "the supplement of paper PMC5949888", "note": "Most values lie at the floor of the assay. Slopes are relative: functional sequences can read slightly below zero.", "data": [{"tested_on": "Saccharomyces cerevisiae PS128 hsf1 delta, HSF1(1-493) fusion", "assay": "growth estimate (transactivation domain function in HSF1 fusion, heat-shock survival) (a.u. (slope of normalised read count over time)); higher = stronger growth at 37°C, i.e. more transactivation activity", "settings": "library: random library", "values": [{"substance": "LLVASDLGDLARVEDTQSTD", "growth estimate": "< -0.25"}, {"substance": "EYGIADRT", "growth estimate": "< -0.25"}, {"substance": "SLRVEICGSGRPGSSRCHGR", "growth estimate": "< -0.25"}, {"substance": "ADPGSWFFK", "growth estimate": -0.228}, {"substance": "QRSCRGRNIIIQDRYAPSTC", "growth estimate": "< -0.25"}, {"substance": "FVISNRENLCPQG", "growth estimate": "< -0.25"}, {"substance": "RYKG", "growth estimate": "< -0.25"}, {"substance": "PATVENRYNGDSL", "growth estimate": "< -0.25"}, {"substance": "RWI", "growth estimate": "< -0.25"}, {"substance": "QIIFSRKVY", "growth estimate": "< -0.25"}, {"substance": "GIHVQCLGDQCVITHDSQNF", "growth estimate": "< -0.25"}, {"substance": "FGAVVTPLARVRGFRHQRRL", "growth estimate": "< -0.25"}, {"substance": "VNLQPCVHTSNGK", "growth estimate": "< -0.25"}, {"substance": "GYNGGF", "growth estimate": "< -0.25"}, {"substance": "VIRPGGVGPCQG", "growth estimate": "< -0.25"}, {"substance": "TWLSMSQPTVARIIWKDAMS", "growth estimate": "< -0.25"}, {"substance": "LLSRRAGPRSSNDS", "growth estimate": "< -0.25"}, {"substance": "DEQAPLPRRLLGPWERDPVR", "growth estimate": "< -0.25"}, {"substance": "LTSLAVSRG", "growth estimate": "< -0.25"}, {"substance": "FQEPAWS", "growth estimate": 0.0112}, {"substance": "RGARIGRYMHAGPRAVSRSL", "growth estimate": "< -0.25"}, {"substance": "VRGNVGTRTRIGKKRSPLPP", "growth estimate": "< -0.25"}, {"substance": "RHPSIGTAMRRMAANSPSGP", "growth estimate": "< -0.25"}, {"substance": "RSQDAPLYCRG", "growth estimate": "< -0.25"}, {"substance": "QPGG", "growth estimate": "< -0.25"}, {"substance": "GPLGHLKEVVLQSPDRGSLE", "growth estimate": "< -0.25"}, {"substance": "GTDRINAS", "growth estimate": "< -0.25"}, {"substance": "DFGRKLICG", "growth estimate": "< -0.25"}, {"substance": "YRIGVCIVRLESAATDYRLG", "growth estimate": "< -0.25"}, {"substance": "QFRGAGVETRAHLAYELHV", "growth estimate": "< -0.25"}, {"substance": "VFSQVERVFPLDSKRSVTWP", "growth estimate": "< -0.25"}, {"substance": "QQFPKCIVSWGEFK", "growth estimate": -0.231}, {"substance": "GRVVENVFKRYKGS", "growth estimate": "< -0.25"}, {"substance": "CAC", "growth estimate": "< -0.25"}, {"substance": "GGPWPASRTGAATAAVPLHA", "growth estimate": "< -0.25"}, {"substance": "SRGVEADLLLEYSASRI", "growth estimate": "< -0.25"}, {"substance": "SLLNVRELPPAPRR", "growth estimate": "< -0.25"}, {"substance": "TMVHHCIVGPSEGRRK", "growth estimate": "< -0.25"}, {"substance": "KPTWLPRVLKVSRGGFHSSH", "growth estimate": "< -0.25"}, {"substance": "SIKSLVGGIFGRVARIDDRS", "growth estimate": "< -0.25"}, {"substance": "QKTE", "growth estimate": "< -0.25"}, {"substance": "QKLNVT", "growth estimate": "< -0.25"}, {"substance": "VVWKPVTLVGL", "growth estimate": "< -0.25"}, {"substance": "QSVVGGVAGMPVQVLHASQT", "growth estimate": "< -0.25"}, {"substance": "LGVLWGAVLRKARLPRARFC", "growth estimate": "< -0.25"}, {"substance": "GGSEGKDGA", "growth estimate": "< -0.25"}, {"substance": "IKREGCVQSGPG", "growth estimate": "< -0.25"}, {"substance": "VLLGDMPESR", "growth estimate": "< -0.25"}, {"substance": "NTGELEIECDRILYPAISVQ", "growth estimate": "< -0.25"}, {"substance": "TRDLMVCKGAVR", "growth estimate": "< -0.25"}, {"substance": "QQGSVSVAGGTQLRRIGQRS", "growth estimate": "< -0.25"}, {"substance": "SPDI", "growth estimate": "< -0.25"}, {"substance": "LVVPAYMPGGAAHRTRSDTA", "growth estimate": -0.228}, {"substance": "DSKLATWLVAPPALAHVYTA", "growth estimate": "< -0.25"}, {"substance": "QHSAVGLEPGCKRVALGPQS", "growth estimate": "< -0.25"}, {"substance": "PNDWSRSA", "growth estimate": "< -0.25"}, {"substance": "RSREFRLRQHKLETSVFVLR", "growth estimate": "< -0.25"}, {"substance": "VIVEVSPQSGYHVVMALTGY", "growth estimate": "< -0.25"}, {"substance": "FDSTAAEESQGSISVDRSAV", "growth estimate": "< -0.25"}, {"substance": "SDR", "growth estimate": "< -0.25"}, {"substance": "NWNYIERGAKS", "growth estimate": "< -0.25"}, {"substance": "TISYA", "growth estimate": "< -0.25"}, {"substance": "TRLEDTIRVRASGKL", "growth estimate": "< -0.25"}, {"substance": "AFHVKRTNRRPT", "growth estimate": "< -0.25"}, {"substance": "PIAYC", "growth estimate": -0.243}, {"substance": "QICINTSA", "growth estimate": "< -0.25"}, {"substance": "WVTPYIKQLLSMAARVVPCA", "growth estimate": "< -0.25"}, {"substance": "FWCVFRARGDHKVACSLTPK", "growth estimate": "< -0.25"}, {"substance": "SKEAQASSPAGRCHNNNEPR", "growth estimate": "< -0.25"}, {"substance": "ESSR", "growth estimate": "< -0.25"}, {"substance": "LRVKF", "growth estimate": "< -0.25"}, {"substance": "HKDRTAGMLGRSLGRNAATV", "growth estimate": "< -0.25"}, {"substance": "FGLSGPFRLEVIYAKFSMEL", "growth estimate": "< -0.25"}, {"substance": "RRGTEPLLAAMPGPILYASL", "growth estimate": "< -0.25"}, {"substance": "VCNMALNGGATN", "growth estimate": "< -0.25"}, {"substance": "TGVGAYAKPFGNYARFAITH", "growth estimate": "< -0.25"}, {"substance": "SHWNGWKSRKGRVVTRTGPA", "growth estimate": "< -0.25"}, {"substance": "REETQSGALTALDAKRNERV", "growth estimate": "< -0.25"}, {"substance": "PVT", "growth estimate": "< -0.25"}, {"substance": "VASTWSWIHENTVPSPSTVS", "growth estimate": "< -0.25"}, {"substance": "PEV", "growth estimate": "< -0.25"}, {"substance": "WGCCECPITLTDSSQRVRLS", "growth estimate": "< -0.25"}, {"substance": "VVACHRVLILVGRTRCHVWA", "growth estimate": "< -0.25"}, {"substance": "PAKIFRSETRRATVFSTPWC", "growth estimate": "< -0.25"}, {"substance": "TRTWTVCVVSILGVRFRPQI", "growth estimate": "< -0.25"}, {"substance": "DSTRAGSLYPVVSRNVMEDA", "growth estimate": "< -0.25"}, {"substance": "RSTSMHNIPNVFAQRCLSPP", "growth estimate": "< -0.25"}, {"substance": "PQHWYRAHAFCLPRAIKSLV", "growth estimate": "< -0.25"}, {"substance": "GVLYGGLE", "growth estimate": "< -0.25"}, {"substance": "CHECVAEYF", "growth estimate": "< -0.25"}, {"substance": "LISALLSASRRESCLDSIPP", "growth estimate": "< -0.25"}, {"substance": "YPML", "growth estimate": "< -0.25"}, {"substance": "PEHFVSRTLSPLALAFKTRC", "growth estimate": "< -0.25"}, {"substance": "FDQLTHSSRQR", "growth estimate": "< -0.25"}, {"substance": "LVRKQVCLLRGLRFPSGNL", "growth estimate": "< -0.25"}, {"substance": "NHPAFLVSTMMDHPI", "growth estimate": "< -0.25"}, {"substance": "CLENMGQ", "growth estimate": "< -0.25"}, {"substance": "SCIKIGKFIRKNLLNATPRH", "growth estimate": "< -0.25"}, {"substance": "DLGQAEEMARSTTLLGNSFQ", "growth estimate": -0.121}, {"substance": "VVRR", "growth estimate": "< -0.25"}, {"substance": "GQYFFLGGMNP", "growth estimate": -0.219}, {"substance": "ICGGSFNFEIGLSRMVYWGQ", "growth estimate": "< -0.25"}, {"substance": "VRSFGRRLNWHGKDRLWIMQ", "growth estimate": "< -0.25"}, {"substance": "ANELVSSGCRFM", "growth estimate": "< -0.25"}, {"substance": "NVPPW", "growth estimate": "< -0.25"}, {"substance": "SGGSRPKSVTG", "growth estimate": "< -0.25"}, {"substance": "SVPKSEGISGLDGGVFPNS", "growth estimate": "< -0.25"}, {"substance": "SFTPRPAGRVSGRDSQSWVA", "growth estimate": "< -0.25"}, {"substance": "RSNDV", "growth estimate": "< -0.25"}, {"substance": "RRGPYVDLESFDHSYVRLYK", "growth estimate": "< -0.25"}, {"substance": "FRIAVARLAAQEGHYFAKFH", "growth estimate": "< -0.25"}, {"substance": "SIIPEMYPACRRFHSRPGSC", "growth estimate": "< -0.25"}, {"substance": "GCTEGDPALLVAFLVHGLR", "growth estimate": "< -0.25"}, {"substance": "VDKDNKW", "growth estimate": "< -0.25"}, {"substance": "VLEVEIRQKT", "growth estimate": "< -0.25"}, {"substance": "LECWRDGWVVARRRKPYQVN", "growth estimate": "< -0.25"}, {"substance": "PLS", "growth estimate": "< -0.25"}, {"substance": "EPDWLGERLCGWA", "growth estimate": "< -0.25"}, {"substance": "RSGVGPYDRKTGWQRNRDPT", "growth estimate": "< -0.25"}, {"substance": "GPAVSSAGVGGSGVDTGVLP", "growth estimate": "< -0.25"}, {"substance": "GGGLVYSDYVTCFSSGSSQS", "growth estimate": "< -0.25"}, {"substance": "DRRPA", "growth estimate": "< -0.25"}, {"substance": "NSFARTDKTLVAQLFDGSKL", "growth estimate": "< -0.25"}, {"substance": "TPSRSKQKVIKVNQICQAVV", "growth estimate": "< -0.25"}, {"substance": "YNFGGVKGRHFFLDLGTTSL", "growth estimate": -0.228}, {"substance": "RWLPTRGRTGGQTTLGKLAP", "growth estimate": "< -0.25"}, {"substance": "WRKLGIHDS", "growth estimate": "< -0.25"}, {"substance": "GHAGTA", "growth estimate": "< -0.25"}, {"substance": "SSNLVEAFVRDRATYRKDLP", "growth estimate": "< -0.25"}, {"substance": "GAADAGFGAGSPV", "growth estimate": -0.103}, {"substance": "ESGYLTRENSVVK", "growth estimate": "< -0.25"}, {"substance": "LRLMRMGYSRLLRIGEPGQQ", "growth estimate": "< -0.25"}, {"substance": "DRFLRHIRFWSNL", "growth estimate": -0.243}, {"substance": "GIVR", "growth estimate": "< -0.25"}, {"substance": "RLVRTIPWPAGNCLRITR", "growth estimate": "< -0.25"}, {"substance": "GFATGDSFMQAQPSLQLPLT", "growth estimate": "< -0.25"}, {"substance": "RKPGSPVRR", "growth estimate": "< -0.25"}, {"substance": "LALNFIFAGKRLAIRGLQTV", "growth estimate": "< -0.25"}, {"substance": "HPDAFHHAGRVLVLKTHVLH", "growth estimate": "< -0.25"}, {"substance": "KATTALGRSDCVVDRVGFHH", "growth estimate": "< -0.25"}, {"substance": "RSLAGSASPAGGK", "growth estimate": "< -0.25"}, {"substance": "ASIPRGKRGTGTDVRLCYEA", "growth estimate": "< -0.25"}, {"substance": "RLGYIPPVRRRP", "growth estimate": "< -0.25"}, {"substance": "LVIIYFETSADIGTNTVIAM", "growth estimate": "< -0.25"}, {"substance": "CSCGHVSNRARGPVIVLVQQ", "growth estimate": "< -0.25"}, {"substance": "SHMGLHTIEVGTDEYIIRRP", "growth estimate": "< -0.25"}, {"substance": "PWGIS", "growth estimate": "< -0.25"}, {"substance": "LLYPTGIVCKKGTCFYSQRM", "growth estimate": "< -0.25"}, {"substance": "NWQSAGNATTVR", "growth estimate": "< -0.25"}, {"substance": "RAYRRDPRTDRDPETTLSQM", "growth estimate": "< -0.25"}, {"substance": "TVRIKHATSLRHYPSYVYKY", "growth estimate": "< -0.25"}, {"substance": "YPTTKFALLRHKLRDGRVRA", "growth estimate": "< -0.25"}, {"substance": "PVCASDAIGSYSGIRHRFWS", "growth estimate": "< -0.25"}, {"substance": "VWQG", "growth estimate": "< -0.25"}, {"substance": "SVVAGAVINDLCRSRPSFDP", "growth estimate": "< -0.25"}, {"substance": "STCVDFAPSSDFLHCPGSFA", "growth estimate": "< -0.25"}, {"substance": "TGPLTR", "growth estimate": "< -0.25"}]}]}
